The record followed here is US8696867B2, “Disulfo-type fluorescent whitening agents” (Blankophor GmbH & Co. KG, priority 2009, dated 2014).

This data set is described as follows: Whitening performance in hand sheets, wood-containing pulp.

Take `O=S(=O)([O-])c1cc(Nc2nc(Nc3ccccc3)nc(N(CCO)CCO)n2)ccc1/C=C/c1ccc(Nc2nc(Nc3ccccc3)nc(N(CCO)CCO)n2)cc1S(=O)(=O)[O-].[Na+].[Na+]` [Comparative 1, reference compound]: the CIE whiteness is, setting by setting: (0.04 wt % FWA on dry pulp) 50.01; (0.08 wt % FWA on dry pulp) 56.60; (0.16 wt % FWA on dry pulp) 62.58; (0.24 wt % FWA on dry pulp) 65.75; (0.32 wt % FWA on dry pulp) 67.23. For the same compound, the “L*” value runs as follows: (0.04 wt % FWA on dry pulp) 93.85; (0.08 wt % FWA on dry pulp) 94.01; (0.16 wt % FWA on dry pulp) 94.18; (0.24 wt % FWA on dry pulp) 94.24; (0.32 wt % FWA on dry pulp) 94.32. Also, the “a*” value (0.04 wt % FWA on dry pulp) is listed as −0.11; the “a*” value (0.08 wt % FWA on dry pulp) is 0.16; the “a*” value (0.16 wt % FWA on dry pulp) was 0.26; the “a*” value (0.24 wt % FWA on dry pulp) was found to be 0.30; the “a*” value (0.32 wt % FWA on dry pulp) is given as 0.29. In addition, the “b*” value stood at 7.61 (0.04 wt % FWA on dry pulp); 6.27 (0.08 wt % FWA on dry pulp); 5.06 (0.16 wt % FWA on dry pulp); 4.40 (0.24 wt % FWA on dry pulp); 4.12 (0.32 wt % FWA on dry pulp).
For the compound `O=C([O-])c1ccc(Nc2nc(Nc3ccc(/C=C/c4ccc(Nc5nc(Nc6ccc(C(=O)[O-])cc6)nc(N(CCO)CCO)n5)cc4S(=O)(=O)[O-])c(S(=O)(=O)[O-])c3)nc(N(CCO)CCO)n2)cc1.[Na+].[Na+].[Na+].[Na+]` [FWA 1], the CIE whiteness by setting is: (0.04 wt % FWA on dry pulp) 52.12; (0.08 wt % FWA on dry pulp) 59.30; (0.16 wt % FWA on dry pulp) 65.61; (0.24 wt % FWA on dry pulp) 68.43; (0.32 wt % FWA on dry pulp) 69.74. Moreover, the “L*” value (0.04 wt % FWA on dry pulp) is 93.83; the “L*” value (0.08 wt % FWA on dry pulp) was found to be 94.08; the “L*” value (0.16 wt % FWA on dry pulp) is 94.20; the “L*” value (0.24 wt % FWA on dry pulp) is 94.31; the “L*” value (0.32 wt % FWA on dry pulp) came to 94.45. In addition, the “a*” value is on record as −0.08 (0.04 wt % FWA on dry pulp); 0.22 (0.08 wt % FWA on dry pulp); 0.30 (0.16 wt % FWA on dry pulp); 0.22 (0.24 wt % FWA on dry pulp); 0.18 (0.32 wt % FWA on dry pulp). The “b*” value was found to be 7.14 (0.04 wt % FWA on dry pulp); 5.72 (0.08 wt % FWA on dry pulp); 4.41 (0.16 wt % FWA on dry pulp); 3.85 (0.24 wt % FWA on dry pulp); 3.64 (0.32 wt % FWA on dry pulp).
As to `CC(O)CN(CC(C)O)c1nc(Nc2ccc(C(=O)[O-])cc2)nc(Nc2ccc(/C=C/c3ccc(Nc4nc(Nc5ccc(C(=O)[O-])cc5)nc(N(CC(C)O)CC(C)O)n4)cc3S(=O)(=O)[O-])c(S(=O)(=O)[O-])c2)n1.[Na+].[Na+].[Na+].[Na+]` (stereo not drawn) [FWA 2], the CIE whiteness reads like this: (0.04 wt % FWA on dry pulp) 50.86; (0.08 wt % FWA on dry pulp) 57.77; (0.16 wt % FWA on dry pulp) 64.23; (0.24 wt % FWA on dry pulp) 67.19; (0.32 wt % FWA on dry pulp) 68.76. Further, the “L*” value (0.04 wt % FWA on dry pulp) is 93.84; the “L*” value (0.08 wt % FWA on dry pulp) is 94.02; the “L*” value (0.16 wt % FWA on dry pulp) was found to be 94.09; the “L*” value (0.24 wt % FWA on dry pulp) amounted to 94.12; the “L*” value (0.32 wt % FWA on dry pulp) amounted to 94.31. The “a*” value (0.04 wt % FWA on dry pulp) is −0.10; the “a*” value (0.08 wt % FWA on dry pulp) was 0.17; the “a*” value (0.16 wt % FWA on dry pulp) was 0.33; the “a*” value (0.24 wt % FWA on dry pulp) is recorded as 0.36; the “a*” value (0.32 wt % FWA on dry pulp) worked out at 0.35. Also, the “b*” value reads like this: (0.04 wt % FWA on dry pulp) 7.42; (0.08 wt % FWA on dry pulp) 6.02; (0.16 wt % FWA on dry pulp) 4.65; (0.24 wt % FWA on dry pulp) 4.02; (0.32 wt % FWA on dry pulp) 3.78.
